Test results as given in publication PMC11536020.
No constants are given. Whether binding was seen depends on the method and setting. Binding seen in cells or lysates may run through a third protein. Some entries that bind do so weakly or less than the wild type. For some assays here: Sequences can lack the tags named with a protein.

Protein sequences, listed by entry. Tags and fused reporters are not part of them.
UniProt Q96RT1: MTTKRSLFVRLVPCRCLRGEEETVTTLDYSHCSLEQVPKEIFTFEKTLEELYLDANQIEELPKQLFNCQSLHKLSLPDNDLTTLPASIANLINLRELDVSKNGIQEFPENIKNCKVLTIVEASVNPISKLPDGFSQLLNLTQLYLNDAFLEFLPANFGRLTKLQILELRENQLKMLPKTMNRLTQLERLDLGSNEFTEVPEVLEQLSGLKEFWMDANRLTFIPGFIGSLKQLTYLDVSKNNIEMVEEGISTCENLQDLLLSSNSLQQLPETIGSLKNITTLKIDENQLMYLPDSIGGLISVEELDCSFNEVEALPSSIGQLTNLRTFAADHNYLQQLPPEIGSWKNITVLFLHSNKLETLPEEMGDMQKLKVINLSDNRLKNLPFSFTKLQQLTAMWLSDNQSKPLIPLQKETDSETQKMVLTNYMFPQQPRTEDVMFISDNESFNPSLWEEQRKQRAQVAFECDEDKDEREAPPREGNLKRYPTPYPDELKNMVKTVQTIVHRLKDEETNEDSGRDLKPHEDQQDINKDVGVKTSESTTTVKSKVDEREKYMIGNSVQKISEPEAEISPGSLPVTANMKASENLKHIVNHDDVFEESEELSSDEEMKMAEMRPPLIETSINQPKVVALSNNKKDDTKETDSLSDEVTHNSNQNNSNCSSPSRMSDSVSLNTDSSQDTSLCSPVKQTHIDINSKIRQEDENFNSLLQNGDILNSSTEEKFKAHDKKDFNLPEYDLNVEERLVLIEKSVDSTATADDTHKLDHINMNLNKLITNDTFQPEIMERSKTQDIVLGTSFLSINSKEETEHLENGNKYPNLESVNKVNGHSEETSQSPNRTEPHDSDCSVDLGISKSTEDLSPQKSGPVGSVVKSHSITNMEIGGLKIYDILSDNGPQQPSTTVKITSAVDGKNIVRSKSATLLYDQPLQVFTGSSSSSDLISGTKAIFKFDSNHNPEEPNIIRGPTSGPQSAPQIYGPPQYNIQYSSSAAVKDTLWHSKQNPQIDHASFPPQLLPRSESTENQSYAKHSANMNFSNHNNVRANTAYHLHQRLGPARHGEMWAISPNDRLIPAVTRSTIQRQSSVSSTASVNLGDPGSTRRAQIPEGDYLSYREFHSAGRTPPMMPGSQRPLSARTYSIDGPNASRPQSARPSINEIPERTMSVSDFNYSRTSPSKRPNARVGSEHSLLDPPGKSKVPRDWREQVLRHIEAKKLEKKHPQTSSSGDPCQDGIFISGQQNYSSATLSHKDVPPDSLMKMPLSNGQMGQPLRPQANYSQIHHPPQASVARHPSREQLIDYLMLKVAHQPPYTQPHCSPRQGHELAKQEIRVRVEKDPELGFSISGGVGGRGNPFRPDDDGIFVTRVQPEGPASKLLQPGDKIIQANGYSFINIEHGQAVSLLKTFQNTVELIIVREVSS

Experiments:
[1] = molecular target: T1, NADPH oxidase organizer 1 (NoxO1), myc-tagged, overexpressed (human) (UniProt Q8NFA2); assay: proximity ligation; as a4, with cells treated with EGF before fixation; detection of myc (NoxO1) and EGFR
T1 sequence: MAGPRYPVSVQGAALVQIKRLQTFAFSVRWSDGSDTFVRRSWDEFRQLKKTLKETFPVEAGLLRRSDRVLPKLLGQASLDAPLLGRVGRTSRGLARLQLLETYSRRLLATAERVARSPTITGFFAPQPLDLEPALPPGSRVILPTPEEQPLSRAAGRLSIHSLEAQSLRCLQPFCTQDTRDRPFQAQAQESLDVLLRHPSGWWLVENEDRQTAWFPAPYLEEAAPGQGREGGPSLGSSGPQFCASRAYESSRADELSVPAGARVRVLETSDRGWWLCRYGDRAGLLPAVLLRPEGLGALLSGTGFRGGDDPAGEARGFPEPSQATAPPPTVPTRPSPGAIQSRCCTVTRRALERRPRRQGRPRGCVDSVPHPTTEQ

[2] = molecular target: T1, NADPH oxidase organizer 1 (NoxO1), myc-tagged, overexpressed (human); assay: proximity ligation; Duolink In situ Orange kit on fixed Hek293 cells overexpressing NoxO1 or empty vector; two primary antibodies 1:500
[3] = molecular target: ErbB2 (Her2) (human (endogenous in Hek293)) (UniProt P04626); assay: as above
[4] = molecular target: T1, NADPH oxidase organizer 1 (NoxO1), myc-tagged, overexpressed (human); assay: co-IP; Dynabeads Protein G IP kit; 500 ug lysate; target antibodies or IgG control overnight at 4 °C; the antibody used and the panel that shows it are not told

Substance | binding [1] | binding [2] | binding [3] | binding [4]
Epidermal growth factor receptor (EGFR) (from UniProt P00533 25-1210) | no binding (condition: after EGF stimulation of the cells) | binds | – | –
ErbB2 interacting protein (Erbin) (from UniProt Q96RT1 1-1412) | – | binds | binds | binds
